From patent US5098995A, “GRF Analogs VIIA” (The Salk Institute For Biological Studies, priority 1989, dated 1992)
At least one peptide structure holds a part that was inferred or is arguable (an end, a ring closure or a residue). Square brackets hold non-standard residues; d marks the D form. Peptide text beside a SMILES is read from it. NMeY = CN[C@@H](Cc1ccc(O)cc1)C(=O)O; αMeL = CC(C)C[C@](C)(N)C(=O)O

Tested on: cells of rat pituitary glands
Experiment: in vitro assay of growth hormone release from cultured rat pituitary cells, side-by-side with the hpGRF(1-40)-OH standard
Format: cell-based
Settings: potency for GH release relative to hGRF(1-40)-OH standard = 1.0; equimolar concentrations; rat pituitary cell cultures; incubation 3 to 4 hours; ir GH by radioimmunoassay; limits in brackets
Procedure: To determine the relative effectiveness of certain representative synthetic peptides to promote the release of growth hormone, in vitro assays are carried out using synthetic hpGRF(1-40)-OH as a standard in side-by-side comparison with equimolar concentrations of the representative analogs which have been synthesized. Cultures are used which include cells of rat pituitary glands removed some three to five days previously. Such cultures are considered optimal for the secretion of growth hormone and are used for the comparative testing, in the general manner described in Vale et al. Endocrinology, 91, 562-572 (1972) and as more particularly described in Vale et al. Endocrinology, 112, 1553-1555 (1983). Incubation with the substance to be tested is carried out for 3 to 4 hours, and aliquots of the culture medium are removed and processed to measure their contents in immunoreactive GH(ir GH) by a well-characterized radioimmunoassay.

CC[C@H](C)[C@H](NC(=O)[C@H](C)NC(=O)[C@H](CC(=O)O)NC(=O)[C@H](C)NC(=O)[C@H](Cc1ccc(O)cc1)NC)C(=O)N[C@@H](Cc1ccccc1)C(=O)N[C@H](C(=O)N[C@@H](CC(N)=O)C(=O)N[C@@H](CO)C(=O)N[C@@H](Cc1ccc(O)cc1)C(=O)N[C@@H](CCCNC(=N)N)C(=O)N[C@@H](CCCCN)C(=O)N[C@H](C(=O)N[C@@H](CC(C)C)C(=O)N[C@@H](C)C(=O)N[C@@H](CCC(N)=O)C(=O)N[C@@H](CC(C)C)C(=O)N[C@@H](CO)C(=O)N[C@@H](C)C(=O)N[C@@H](CCCNC(=N)N)C(=O)N[C@@H](CCCCN)C(=O)N[C@@H](CC(C)C)C(=O)N[C@@H](CC(C)C)C(=O)N[C@@H](CCC(N)=O)C(=O)N[C@@H](CC(=O)O)C(=O)N[C@H](C(=O)N[C@@](C)(CC(C)C)C(=O)N[C@@H](CC(N)=O)C(=O)N[C@@H](CCCNC(=N)N)C(N)=O)[C@@H](C)CC)C(C)C)[C@@H](C)O [[N^a MeTyr^1, Ala^15, CML^27, Asn^28]-hGRF(1-29)-NH2] (H-[NMeY]ADAIFTNSYRKVLAQLSARKLLQDI[αMeL]NR-NH2)
In Vitro Potencies: 10.00 (5.2-20.1)
